# Experimental data: the supplement of paper PMC4604168 (melanoma cell lines)
# The list shows a part of the results. Single values are uncertain, as repeats are few or missing.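 The apoptosis fraction was the count of cleaved-PARP antibody-stained nuclei relative to all DNA-stained nuclei, imaged in 1,536-well plates. Screening doses were set so most cells survived, and baseline and induced cleaved-PARP levels vary greatly across cell lines.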
# Test system: WM115
# Assay: cleaved PARP positive nuclei fraction relative to DMSO control; melanoma cells; higher = more apoptosis
# Conditions: library dose: low library concentration; 72 h
row,Structure (SMILES),cleaved PARP positive nuclei fraction
1,"Cn1nnc2c(C(N)=O)ncn2c1=O [temozolomide] + Cn1cc(/C=C2\C(=O)Nc3cccnc32)c2ccccc21 [GW441756] (first compound 2 µM, partner dose 0.4 µM)",384%
2,"Cc1cc(N2CCOCC2)cc2[nH]c(-c3c(NC[C@@H](O)c4cccc(Cl)c4)cc[nH]c3=O)nc12 + O=C(Nc1ccccc1)c1cc([N+](=O)[O-])ccc1Cl [GW9662] (first compound 0.2 µM, partner dose 2 µM)",105%
3,"C[C@]1(c2nc3c(C(N)=O)cccc3[nH]2)CCCN1 [Veliparib] + Oc1cc(-c2nc(-c3ccccc3)[nH]c2-c2ccncc2)ccc1Cl [L779450] (first compound 1.4 µM, partner dose 0.2 µM)",652%
4,"C#Cc1cccc(Nc2ncnc3cc(OCCOC)c(OCCOC)cc23)c1 [erlotinib] + Cc1cc([N+](=O)[O-])ccc1NS(=O)(=O)c1cc(Cl)ccc1Cl [FH535] (first compound 0.8 µM, partner dose 1 µM)",180%
5,"C[C@]1(c2nc3c(C(N)=O)cccc3[nH]2)CCCN1 [Veliparib] + C=CCn1c(=O)c2cnc(Nc3ccc(N4CCN(C)CC4)cc3)nc2n1-c1cccc(C(C)(C)O)n1 [MK1775] (first compound 1.4 µM, partner dose 0.02 µM)",177%
6,"Cn1c(Nc2ccc(C(F)(F)F)cc2)nc2cc(Oc3ccnc(-c4ncc(C(F)(F)F)[nH]4)c3)ccc21 + O=C(Nc1cccc(Cl)c1)Nc1ncc(CCNc2ncnc3ccsc23)s1 [SNS314] (first compound 0.08 µM, partner dose 0.0008 µM)",1540%
7,"C#Cc1cccc(Nc2ncnc3cc(OCCOC)c(OCCOC)cc23)c1 [erlotinib] + O=C(Nc1ccccc1)c1cc([N+](=O)[O-])ccc1Cl [GW9662] (first compound 0.8 µM, partner dose 2 µM)",139%
8,"NC(=O)Nc1cc(-c2cccc(F)c2)sc1C(=O)N[C@H]1CCCNC1 + C[C@@H]1CCN(C(=O)CC#N)C[C@@H]1N(C)c1ncnc2[nH]ccc12 [CP690550] (first compound 0.02 µM, partner dose 1 µM)",61.9%
9,"COCC[n+]1c2c(n(Cc3cnccn3)c1C)C(=O)c1ccccc1C2=O + OCCn1cc(-c2cnc3nnn(Cc4ccc5ncccc5c4)c3n2)cn1 [PF04217903] (first compound 0.0004 µM, partner dose 1 µM)",52.6%
10,"C=CCn1c(=O)c2cnc(Nc3ccc(N4CCN(C)CC4)cc3)nc2n1-c1cccc(C(C)(C)O)n1 + COc1ccc(-c2ccc3c(N4CCOCC4)nc(N4C[C@@H](C)O[C@@H](C)C4)nc3n2)cc1CO [KU0063794] (first compound 0.02 µM, partner dose 0.02 µM)",174%
11,"Cc1cc(N2CCOCC2)cc2[nH]c(-c3c(NC[C@@H](O)c4cccc(Cl)c4)cc[nH]c3=O)nc12 + CCCCCCCCCCCC1=C(O)C(=O)C=C(O)C1=O [Embelin] (first compound 0.2 µM, partner dose 1.2 µM)",40.3%
12,"C=CCNC1=C2C[C@@H](C)C[C@H](OC)[C@H](O)[C@@H](C)/C=C(\C)[C@H](OC(N)=O)[C@@H](OC)/C=C\C=C(/C)C(=O)NC(=CC1=O)C2=O [Tanespimycin] + CN(NC(=O)CC(=O)NN(C)C(=S)c1ccccc1)C(=S)c1ccccc1 [STA4783] (first compound 0.002 µM, partner dose 0.006 µM)",302%
13,"COCC[n+]1c2c(n(Cc3cnccn3)c1C)C(=O)c1ccccc1C2=O + N#Cc1c(O)c2c(-c3ccc(-c4ccccc4O)cc3)csc2[nH]c1=O [A769662] (first compound 0.0004 µM, partner dose 2 µM)",150%
14,"C[C@@H]1CCN(C(=O)CC#N)C[C@@H]1N(C)c1ncnc2[nH]ccc12 + COc1ccc(COc2ccc(Cc3cnc(N)nc3N)cc2OC)cc1 [GW2580] (first compound 1 µM, partner dose 1 µM)",74.9%
15,"Cn1c(Nc2ccc(C(F)(F)F)cc2)nc2cc(Oc3ccnc(-c4ncc(C(F)(F)F)[nH]4)c3)ccc21 + CCCCCCCCCCCC1=C(O)C(=O)C=C(O)C1=O [Embelin] (first compound 0.08 µM, partner dose 1.2 µM)",368%

# Rewritten with bars between the fields: part of the list above.
row | Structure (SMILES) | cleaved PARP positive nuclei fraction
8 | NC(=O)Nc1cc(-c2cccc(F)c2)sc1C(=O)N[C@H]1CCCNC1 + C[C@@H]1CCN(C(=O)CC#N)C[C@@H]1N(C)c1ncnc2[nH]ccc12 [CP690550] (first compound 0.02 µM, partner dose 1 µM) | 61.9%
9 | COCC[n+]1c2c(n(Cc3cnccn3)c1C)C(=O)c1ccccc1C2=O + OCCn1cc(-c2cnc3nnn(Cc4ccc5ncccc5c4)c3n2)cn1 [PF04217903] (first compound 0.0004 µM, partner dose 1 µM) | 52.6%
